The other results are listed elsewhere or left out. The data scatter; read single values as rough.
What follows are targets tested with ClCC(=O)N[C@H]1CCCc2ccccc12 (assay: log2 mean competition ratio of IA-DTB cysteine labelling (DMSO/compound) (log2 ratio); higher = stronger cysteine engagement by compound). Settings: 50 µM; treatment time: 4 h; cell line lysate: HEK293T.
Procedure: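 IA-DTB competitive cysteine chemoproteomics in HEK293T RIPA lysate. Lysates were treated with compound 29 or 30 at 50 or 200 µM for 4 h, then IA-DTB (500 µM, 1 h), trypsin-digested, NeutrAvidin-enriched and analysed by diaPASEF. Competition ratio = intensity DMSO / intensity compound (n=4 treated, n=64 DMSO); binding: mean log2 CR ≥ 1 and p ≤ 0.05 plus QC filters. Target is the cysteine site.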

Sequences of proteins named here, by UniProt entry; tags and fusion partners are left off. A change or cut given only in a name is not applied to a line headed by its entry. Residues count along the entry.
UniProt P19174: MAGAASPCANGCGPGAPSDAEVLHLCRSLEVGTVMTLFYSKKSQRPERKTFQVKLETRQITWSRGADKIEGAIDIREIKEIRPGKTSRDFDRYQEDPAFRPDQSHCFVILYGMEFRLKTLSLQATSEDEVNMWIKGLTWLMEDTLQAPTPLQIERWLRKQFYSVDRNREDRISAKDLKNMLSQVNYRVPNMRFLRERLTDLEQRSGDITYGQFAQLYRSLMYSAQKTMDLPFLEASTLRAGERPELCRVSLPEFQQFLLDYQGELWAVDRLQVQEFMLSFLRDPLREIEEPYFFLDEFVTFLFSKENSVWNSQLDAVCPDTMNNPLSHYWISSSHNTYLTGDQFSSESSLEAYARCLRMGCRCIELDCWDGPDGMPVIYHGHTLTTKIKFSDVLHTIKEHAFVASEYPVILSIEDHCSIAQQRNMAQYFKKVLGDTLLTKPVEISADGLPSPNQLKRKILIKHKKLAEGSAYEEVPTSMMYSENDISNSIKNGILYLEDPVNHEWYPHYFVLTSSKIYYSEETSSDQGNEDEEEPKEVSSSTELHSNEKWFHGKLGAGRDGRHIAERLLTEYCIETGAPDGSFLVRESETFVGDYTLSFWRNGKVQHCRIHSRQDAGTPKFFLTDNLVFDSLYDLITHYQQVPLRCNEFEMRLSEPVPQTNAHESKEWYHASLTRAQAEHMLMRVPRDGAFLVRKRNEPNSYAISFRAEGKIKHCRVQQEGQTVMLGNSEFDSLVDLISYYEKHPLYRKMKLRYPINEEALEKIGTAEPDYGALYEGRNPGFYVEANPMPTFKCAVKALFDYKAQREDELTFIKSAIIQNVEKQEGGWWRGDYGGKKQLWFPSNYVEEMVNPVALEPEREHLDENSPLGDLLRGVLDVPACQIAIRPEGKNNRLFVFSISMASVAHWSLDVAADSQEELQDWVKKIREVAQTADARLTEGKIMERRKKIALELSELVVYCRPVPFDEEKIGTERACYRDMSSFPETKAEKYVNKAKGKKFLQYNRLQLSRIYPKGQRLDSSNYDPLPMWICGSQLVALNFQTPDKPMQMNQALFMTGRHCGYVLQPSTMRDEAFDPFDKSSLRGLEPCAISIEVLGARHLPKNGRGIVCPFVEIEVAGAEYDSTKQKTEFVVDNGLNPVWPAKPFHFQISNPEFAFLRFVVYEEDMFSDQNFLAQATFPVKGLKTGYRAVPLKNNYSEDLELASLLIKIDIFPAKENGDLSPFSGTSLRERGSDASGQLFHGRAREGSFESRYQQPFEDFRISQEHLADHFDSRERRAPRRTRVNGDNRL
UniProt Q92508, 366-396: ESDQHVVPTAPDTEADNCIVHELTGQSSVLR
UniProt P28340: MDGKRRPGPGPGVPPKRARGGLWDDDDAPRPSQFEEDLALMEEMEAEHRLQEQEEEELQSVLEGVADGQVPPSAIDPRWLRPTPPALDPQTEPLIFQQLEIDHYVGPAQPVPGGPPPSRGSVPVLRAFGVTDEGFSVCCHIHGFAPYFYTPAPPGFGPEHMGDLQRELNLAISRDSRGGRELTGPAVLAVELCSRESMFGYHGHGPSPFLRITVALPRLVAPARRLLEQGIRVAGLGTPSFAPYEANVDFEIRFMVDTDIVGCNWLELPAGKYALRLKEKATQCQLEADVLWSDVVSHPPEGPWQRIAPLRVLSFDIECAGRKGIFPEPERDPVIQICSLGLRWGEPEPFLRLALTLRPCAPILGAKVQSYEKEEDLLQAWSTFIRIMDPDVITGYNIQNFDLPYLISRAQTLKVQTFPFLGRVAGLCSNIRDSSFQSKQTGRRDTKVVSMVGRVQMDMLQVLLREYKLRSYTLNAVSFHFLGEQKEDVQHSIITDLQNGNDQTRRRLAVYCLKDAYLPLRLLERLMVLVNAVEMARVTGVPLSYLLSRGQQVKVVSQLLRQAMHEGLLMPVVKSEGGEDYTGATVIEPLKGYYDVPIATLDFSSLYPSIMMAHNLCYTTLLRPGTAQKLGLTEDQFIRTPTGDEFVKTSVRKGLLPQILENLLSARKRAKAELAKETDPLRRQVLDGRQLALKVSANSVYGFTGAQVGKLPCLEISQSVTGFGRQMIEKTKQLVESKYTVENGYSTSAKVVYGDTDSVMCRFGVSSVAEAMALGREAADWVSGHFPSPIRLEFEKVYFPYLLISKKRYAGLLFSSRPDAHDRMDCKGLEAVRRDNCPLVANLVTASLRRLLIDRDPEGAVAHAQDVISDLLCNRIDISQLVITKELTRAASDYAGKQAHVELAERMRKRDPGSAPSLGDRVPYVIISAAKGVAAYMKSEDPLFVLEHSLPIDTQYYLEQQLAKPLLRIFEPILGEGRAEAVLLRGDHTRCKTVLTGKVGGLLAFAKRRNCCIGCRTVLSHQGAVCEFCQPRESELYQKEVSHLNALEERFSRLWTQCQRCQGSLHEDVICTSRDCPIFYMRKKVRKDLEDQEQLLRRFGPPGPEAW
UniProt Q9H8W4: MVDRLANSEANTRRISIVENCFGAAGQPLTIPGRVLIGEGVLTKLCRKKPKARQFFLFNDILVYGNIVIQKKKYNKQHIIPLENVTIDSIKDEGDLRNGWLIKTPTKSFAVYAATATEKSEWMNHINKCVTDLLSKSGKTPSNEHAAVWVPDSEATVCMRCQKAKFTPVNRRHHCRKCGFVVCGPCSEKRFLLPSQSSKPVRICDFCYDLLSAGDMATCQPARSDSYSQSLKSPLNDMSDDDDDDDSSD
UniProt O00443: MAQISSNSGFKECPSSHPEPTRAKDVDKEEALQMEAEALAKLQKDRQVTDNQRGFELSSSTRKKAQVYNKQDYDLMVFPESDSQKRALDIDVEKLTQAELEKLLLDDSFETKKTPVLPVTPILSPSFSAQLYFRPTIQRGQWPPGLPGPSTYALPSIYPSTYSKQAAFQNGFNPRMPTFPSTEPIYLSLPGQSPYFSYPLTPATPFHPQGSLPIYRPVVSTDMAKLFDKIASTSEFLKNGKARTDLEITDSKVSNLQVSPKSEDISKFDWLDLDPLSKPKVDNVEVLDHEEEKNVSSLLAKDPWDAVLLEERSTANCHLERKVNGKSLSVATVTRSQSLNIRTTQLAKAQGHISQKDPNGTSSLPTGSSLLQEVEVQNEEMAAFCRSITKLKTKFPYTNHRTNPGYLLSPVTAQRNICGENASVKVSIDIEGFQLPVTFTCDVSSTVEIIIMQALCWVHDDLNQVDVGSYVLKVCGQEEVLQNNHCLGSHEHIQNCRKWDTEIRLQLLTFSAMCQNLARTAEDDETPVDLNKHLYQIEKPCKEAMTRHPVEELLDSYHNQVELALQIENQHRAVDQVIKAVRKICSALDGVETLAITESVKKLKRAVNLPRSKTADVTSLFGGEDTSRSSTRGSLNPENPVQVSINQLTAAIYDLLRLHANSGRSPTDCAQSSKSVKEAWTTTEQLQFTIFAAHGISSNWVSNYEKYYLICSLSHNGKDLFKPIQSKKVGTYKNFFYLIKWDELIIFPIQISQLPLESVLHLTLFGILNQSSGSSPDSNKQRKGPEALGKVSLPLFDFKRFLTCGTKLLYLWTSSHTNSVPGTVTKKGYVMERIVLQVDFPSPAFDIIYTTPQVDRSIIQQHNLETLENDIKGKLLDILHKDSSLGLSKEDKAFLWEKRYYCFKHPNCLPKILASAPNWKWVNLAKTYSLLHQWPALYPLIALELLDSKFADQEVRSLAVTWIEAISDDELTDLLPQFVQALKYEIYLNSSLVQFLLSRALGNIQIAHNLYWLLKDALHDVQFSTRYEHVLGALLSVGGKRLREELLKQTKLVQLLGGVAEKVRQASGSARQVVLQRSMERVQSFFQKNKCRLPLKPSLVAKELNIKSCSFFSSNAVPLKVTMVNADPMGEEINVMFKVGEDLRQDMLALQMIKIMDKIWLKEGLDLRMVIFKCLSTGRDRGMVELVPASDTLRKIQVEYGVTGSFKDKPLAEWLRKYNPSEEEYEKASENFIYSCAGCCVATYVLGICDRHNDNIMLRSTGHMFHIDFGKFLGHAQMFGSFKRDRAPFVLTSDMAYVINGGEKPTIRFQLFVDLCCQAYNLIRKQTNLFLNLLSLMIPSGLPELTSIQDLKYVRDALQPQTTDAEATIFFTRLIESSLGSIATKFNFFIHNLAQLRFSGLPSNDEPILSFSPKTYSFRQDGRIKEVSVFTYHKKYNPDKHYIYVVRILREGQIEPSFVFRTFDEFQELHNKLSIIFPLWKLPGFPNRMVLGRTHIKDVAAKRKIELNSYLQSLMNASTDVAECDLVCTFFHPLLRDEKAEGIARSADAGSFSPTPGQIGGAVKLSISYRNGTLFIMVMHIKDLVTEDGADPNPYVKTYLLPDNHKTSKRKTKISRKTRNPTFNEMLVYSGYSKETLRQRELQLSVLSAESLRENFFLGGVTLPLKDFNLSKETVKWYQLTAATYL
UniProt P78337, whole entry, looked up: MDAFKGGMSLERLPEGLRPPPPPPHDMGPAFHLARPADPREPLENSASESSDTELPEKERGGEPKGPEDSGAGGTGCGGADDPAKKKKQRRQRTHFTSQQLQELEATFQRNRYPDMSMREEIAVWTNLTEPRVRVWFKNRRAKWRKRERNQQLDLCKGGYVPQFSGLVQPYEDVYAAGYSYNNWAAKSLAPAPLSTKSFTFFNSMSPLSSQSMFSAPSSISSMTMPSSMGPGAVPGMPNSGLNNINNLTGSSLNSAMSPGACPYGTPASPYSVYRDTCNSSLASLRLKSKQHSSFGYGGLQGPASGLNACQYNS
UniProt Q9HB19: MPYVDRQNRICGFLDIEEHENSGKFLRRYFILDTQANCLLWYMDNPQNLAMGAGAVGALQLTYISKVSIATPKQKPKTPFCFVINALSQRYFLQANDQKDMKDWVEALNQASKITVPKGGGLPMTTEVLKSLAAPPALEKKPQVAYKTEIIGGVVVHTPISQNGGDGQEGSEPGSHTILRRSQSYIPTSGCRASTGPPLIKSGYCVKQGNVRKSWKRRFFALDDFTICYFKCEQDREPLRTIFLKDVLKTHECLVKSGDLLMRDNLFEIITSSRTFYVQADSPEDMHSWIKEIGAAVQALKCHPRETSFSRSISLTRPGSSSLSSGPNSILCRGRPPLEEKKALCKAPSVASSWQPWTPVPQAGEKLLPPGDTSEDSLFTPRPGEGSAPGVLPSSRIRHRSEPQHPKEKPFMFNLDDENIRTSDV
UniProt Q92871: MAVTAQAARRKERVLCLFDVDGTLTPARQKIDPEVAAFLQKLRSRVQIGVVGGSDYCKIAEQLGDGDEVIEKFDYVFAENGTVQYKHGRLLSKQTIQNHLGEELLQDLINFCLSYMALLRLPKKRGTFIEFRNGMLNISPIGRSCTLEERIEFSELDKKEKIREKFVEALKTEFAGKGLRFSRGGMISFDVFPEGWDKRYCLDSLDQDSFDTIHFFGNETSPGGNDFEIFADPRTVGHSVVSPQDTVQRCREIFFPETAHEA
UniProt Q9H9Y6, whole entry, looked up: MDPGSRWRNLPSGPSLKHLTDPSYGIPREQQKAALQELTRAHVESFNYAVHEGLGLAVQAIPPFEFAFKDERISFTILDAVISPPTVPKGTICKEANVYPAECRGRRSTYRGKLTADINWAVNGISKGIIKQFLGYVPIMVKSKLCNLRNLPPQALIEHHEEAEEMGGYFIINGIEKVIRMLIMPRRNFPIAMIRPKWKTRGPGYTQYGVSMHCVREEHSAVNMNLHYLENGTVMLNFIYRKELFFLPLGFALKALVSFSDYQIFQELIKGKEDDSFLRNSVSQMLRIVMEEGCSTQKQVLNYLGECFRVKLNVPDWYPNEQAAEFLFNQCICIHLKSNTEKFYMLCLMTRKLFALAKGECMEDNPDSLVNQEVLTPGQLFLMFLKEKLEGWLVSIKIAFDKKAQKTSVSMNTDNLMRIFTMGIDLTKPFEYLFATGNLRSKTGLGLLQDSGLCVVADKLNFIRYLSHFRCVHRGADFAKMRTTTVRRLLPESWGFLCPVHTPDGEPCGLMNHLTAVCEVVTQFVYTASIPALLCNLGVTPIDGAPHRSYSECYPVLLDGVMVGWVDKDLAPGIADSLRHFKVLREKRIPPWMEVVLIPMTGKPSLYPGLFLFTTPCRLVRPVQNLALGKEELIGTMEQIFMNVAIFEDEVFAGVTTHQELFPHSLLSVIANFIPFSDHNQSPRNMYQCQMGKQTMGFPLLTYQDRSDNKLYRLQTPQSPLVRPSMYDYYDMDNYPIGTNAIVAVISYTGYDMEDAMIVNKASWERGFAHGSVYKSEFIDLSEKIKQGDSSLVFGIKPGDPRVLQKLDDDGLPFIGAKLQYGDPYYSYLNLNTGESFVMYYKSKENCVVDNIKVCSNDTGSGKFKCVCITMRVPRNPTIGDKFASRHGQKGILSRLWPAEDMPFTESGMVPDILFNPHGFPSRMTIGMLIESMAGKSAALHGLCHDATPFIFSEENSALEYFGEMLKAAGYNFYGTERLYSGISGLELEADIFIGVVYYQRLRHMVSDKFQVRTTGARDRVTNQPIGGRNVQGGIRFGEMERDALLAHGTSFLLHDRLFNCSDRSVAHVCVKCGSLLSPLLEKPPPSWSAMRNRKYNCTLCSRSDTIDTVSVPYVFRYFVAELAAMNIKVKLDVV
UniProt Q16512, 569-606: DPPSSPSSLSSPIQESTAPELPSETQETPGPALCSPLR

| Target | log2 mean competition ratio |
| --- | --- |
| PNPLA6 C665 (UniProt Q8IY17) | -0.172 |
| PIK3CD C366 (UniProt O00329) | -0.176 |
| PKM C152 | 0.269 |
| PICK1 C145 (UniProt Q9NRD5) | -0.387 |
| PMVK C38 (UniProt Q15126) | -0.207 |
| PLCG1 C881 (UniProt P19174) | -0.615 |
| PIK3R4 C195 (UniProt Q99570) | 0.0889 |
| PODXL C344 (UniProt O00592) | -0.311 |
| PNMA3 C130 | -0.777 |
| POLR1F C193 | -0.0665 |
| PI4KA C1761 (UniProt P42356) | 0.574 |
| PLCG1 C646 (UniProt P19174) | -0.0655 |
| PIEZO1 C383 (UniProt Q92508) | -0.566 |
| POLR1E C138 (UniProt Q9GZS1) | 0.0128 |
| POLD1 C428 (UniProt P28340) | 0.419 |
| PLPBP C15 (UniProt O94903) | 0.00619 |
| PI4KB C89 (UniProt Q9UBF8) | 0.0683 |
| PLEKHF2 C129 (UniProt Q9H8W4) | -0.278 |
| POLR1D C68 | 0.00712 |

| Target | log2 mean competition ratio |
| --- | --- |
| PJA1 C241 | 0.065 |
| PKP4 C492 (UniProt Q99569) | -0.045 |
| PIK3C2A C418 (UniProt O00443) | -0.144 |
| PITX1 C278 (UniProt P78337) | 0.0552 |
| PLEKHA2 C191 (UniProt Q9HB19) | 0.279 |
| PLXNA1 C1744 (UniProt Q9UIW2) | 0.177 |
| PIK3C2A C13 (UniProt O00443) | 0.108 |
| PMM1 C57 (UniProt Q92871) | -0.17 |
| PLBD2 C495 (UniProt Q8NHP8) | -0.71 |
| PNN C249 (UniProt Q9H307) | 0.311 |
| PLK1 C67 (UniProt P53350) | 0.0732 |
| POLR1B C689 (UniProt Q9H9Y6) | 0.0519 |
| PKN1 C602 (UniProt Q16512) | -0.0586 |
| PNO1 C226 (UniProt Q9NRX1) | -0.049 |
| POLG C760 | 0.609 |
| POLD1 C761 (UniProt P28340) | -0.0837 |
| PKN3 C288 (UniProt Q6P5Z2) | -0.205 |
| POLR1B C103 (UniProt Q9H9Y6) | -0.104 |

Same assay, conditions: 200 µM; treatment time: 4 h; cell line lysate: HEK293T

| Target | log2 mean competition ratio |
| --- | --- |
| PNPLA6 C665 (UniProt Q8IY17) | -0.286 |
| PIK3CD C366 (UniProt O00329) | 0.337 |
| PKM C152 | -0.293 |
| PICK1 C145 (UniProt Q9NRD5) | 0.14 |
| PMVK C38 (UniProt Q15126) | -0.00907 |
| PLCG1 C881 (UniProt P19174) | 0.00803 |
| PIK3R4 C195 (UniProt Q99570) | 0.0914 |
| PODXL C344 (UniProt O00592) | 0.0375 |
| PNMA3 C130 | -0.101 |
| POLR1F C193 | -0.293 |
| PI4KA C1761 (UniProt P42356) | 0.127 |
| PLCG1 C646 (UniProt P19174) | 0.101 |
| PIEZO1 C383 (UniProt Q92508) | -0.361 |
| POLR1E C138 (UniProt Q9GZS1) | 0.0468 |
| POLD1 C428 (UniProt P28340) | 0.115 |
| PLPBP C15 (UniProt O94903) | 0.139 |
| PI4KB C89 (UniProt Q9UBF8) | -0.0536 |
| PLEKHF2 C129 (UniProt Q9H8W4) | 0.0514 |
| POLR1D C68 | -0.214 |

| Target | log2 mean competition ratio |
| --- | --- |
| PJA1 C241 | 0.0929 |
| PKP4 C492 (UniProt Q99569) | 0.0929 |
| PIK3C2A C418 (UniProt O00443) | -0.0438 |
| PITX1 C278 (UniProt P78337) | 0.11 |
| PLEKHA2 C191 (UniProt Q9HB19) | 0.243 |
| PLXNA1 C1744 (UniProt Q9UIW2) | -0.00595 |
| PIK3C2A C13 (UniProt O00443) | -0.18 |
| PMM1 C57 (UniProt Q92871) | 0.306 |
| PLBD2 C495 (UniProt Q8NHP8) | -0.218 |
| PNN C249 (UniProt Q9H307) | 0.158 |
| PLK1 C67 (UniProt P53350) | 0.00947 |
| POLR1B C689 (UniProt Q9H9Y6) | 0.0948 |
| PKN1 C602 (UniProt Q16512) | -0.354 |
| PNO1 C226 (UniProt Q9NRX1) | -0.00145 |
| POLG C760 | 0.0862 |
| POLD1 C761 (UniProt P28340) | 0.386 |
| PKN3 C288 (UniProt Q6P5Z2) | -0.113 |
| POLR1B C103 (UniProt Q9H9Y6) | 0.0401 |

Reference: the supplement of paper PMC11732987, “Enantioselective OTUD7B fragment discovery through chemoproteomics screening and high-throughput optimisation” (Communications Chemistry, 2025)
